At least one compound was matched to its structure with a doubt left.
Key:
lamina I (LI) neurons = test: Calcium imaging (fura-2-AM) of GABA-evoked [Ca2+]i rise in lamina I neurons in spinal cord slices; assay type: cell-based, rat; settings: LI neurons ipsilateral to PNI; bicuculline 10 μM (n=5), TTX 1 μM (n=31)
GlyRs and GABAARs = test: Whole-cell recording of miniature postsynaptic currents (mPSCs) and GABA-evoked responses in LI neurons; assay type: cell-based; settings: PNI rat LI neurons, bicuculline 10 μM

SMILES: CN1CCc2cc3c(cc2[C@H]1[C@@H]1OC(=O)c2c1ccc1c2OCO1)OCO3 [bicuculline]
- Block of GABA-evoked [Ca2+]i responses (lamina I (LI) neurons): blocked
- Block of outward mPSCs at 0 mV persisting in the presence of strychnine (GlyRs and GABAARs): blocked

Source: US8173376B2, “Method for identifying compounds for treatment of pain” (Universite Laval, priority 2003, dated 2012)
